Measurements published in patent US10064928B2, “Peptides and combination of peptides for use in immunotherapy against CLL and other cancers” (IMMATICS BIOTECHNOLOGIES GMBH, priority 2015, dated 2018).

Test system: other tumor types (e.g. non-Hodgkin lymphoma, lung cancer)
Test: Presentation of the peptides on additional tumor types (LC-MS, Tables 4A/4B, FIG. 1)
Parameters: species or system human
Conditions: for Other relevant organs/diseases: Table 4A: additional tumor types where the peptide was over-presented on more than 5% of the measured tumor samples, or presented on more than 5% with ratio of geometric means tumor vs normal tissues larger than 3; for Additional Entities: Table 4B: additional tumour types with over-presentation (including specific presentation) on more than 5% of the measured tumour samples, or presentation on more than 5% with ratio of geometric means tumour vs normal tissues larger than 3, extended normal tissue panel

Substance | Other relevant organs/diseases | Additional Entities | additionally detected on non-Hodgkin lymphoma samples (positive/measured samples) | additionally detected on lung cancers (positive/measured samples)
369 (RLLDLENSLLGL; listed as Homo sapiens) [compound 369] | AML |  |  | 
180 (LLKDGPEIGL; listed as Homo sapiens) [compound 180] | NHL |  |  | 
151 (SLFDSAYGA; listed as Homo sapiens) [compound 151] | AML |  |  | 
233 (GIIDINVRL; listed as Homo sapiens) [compound 233] | PC, NHL, Melanoma, Esophageal Cancer, Urinary bladder cancer, Uterine Cancer, Gallbladder Cancer, Bile Duct Cancer |  |  | 
136 (NLDKLWTLV; listed as Homo sapiens) [compound 136] | GC, Esophageal Cancer | AML, CRC, Melanoma, NSCLC, Brain Cancer |  | 
110 (LLFDHLEPMEL; listed as Homo sapiens) [compound 110] | NHL |  |  | 
333 (VTLEFPQLIRV; listed as Homo sapiens) [compound 333] | SCLC, HCC, NHL | BRCA |  | 
46 (YIIDSAQAV; listed as Homo sapiens) [compound 46] | NHL |  |  | 
158 (SLPEAPLDV; listed as Homo sapiens) [compound 158] | NHL, AML, Uterine Cancer |  |  | 
274 (VLLEYHIAYL; listed as Homo sapiens) [compound 274] | NSCLC, SCLC, HCC, NHL, Urinary bladder cancer | Melanoma, HNSCC |  | 
246 (KLDETGVAL; listed as Homo sapiens) [compound 246] | HCC, NHL, AML, Melanoma |  |  | 
44 (FLLSINDFL; listed as Homo sapiens) [compound 44] | Melanoma | RCC, Uterine Cancer, AML, NHL |  | 
159 (SLQEEKLIYV; listed as Homo sapiens) [compound 159] | Brain Cancer, NHL, MCC, Melanoma, Esophageal Cancer, Urinary bladder cancer | HNSCC |  | 
222 (ALWELSLKI; listed as Homo sapiens) [compound 222] | NHL |  |  | 
183 (VLMPTVYQQGV; listed as Homo sapiens) [compound 183] | AML |  |  | 
313 (LMADLEGLHL; listed as Homo sapiens) [compound 313] | Melanoma, Urinary bladder cancer | Uterine Cancer, AML |  | 
265 (TLLADDLEIKL; listed as Homo sapiens) [compound 265] | Esophageal Cancer |  |  | 
303 (ILSQPTPSL; listed as Homo sapiens) [compound 303] | NHL, AML, Melanoma, OC | Uterine Cancer |  | 
196 (YLLLQTYVL; listed as Homo sapiens) [compound 196] | NHL |  |  | 
224 (AMEALVVEV; listed as Homo sapiens) [compound 224] | NHL | AML |  | 
156 (SLNIGDVQL; listed as Homo sapiens) [compound 156] | NHL | AML |  | 
150 (SLFDQPLSII; listed as Homo sapiens) [compound 150] | NHL |  |  | 

Substance | Other relevant organs/diseases | Additional Entities | additionally detected on non-Hodgkin lymphoma samples (positive/measured samples) | additionally detected on lung cancers (positive/measured samples)
325 (TLENGVPCV; listed as Homo sapiens) [compound 325] | NHL |  |  | 
184 (VLSHNLYTV; listed as Homo sapiens) [compound 184] |  | NHL |  | 
26 (AVLLVLPLV; listed as Homo sapiens) [compound 26] |  | NHL, NSCLC |  | 
42 (FLEEGGVVTV; listed as Homo sapiens) [compound 42] | NHL, Melanoma | SCLC, AML |  | 
295 (ALLQKLQQL; listed as Homo sapiens) [compound 295] | NHL |  |  | 
161 (SMDDGMINV; listed as Homo sapiens) [compound 161] | CRC, NHL, Gallbladder Cancer, Bile Duct Cancer | SCLC, Melanoma, Uterine Cancer, AML, HNSCC |  | 
288 (GLAESTGLLAV; listed as Homo sapiens) [compound 288] | NHL |  |  | 
188 (VMGDIPAAV; listed as Homo sapiens) [compound 188] | NHL, AML, Gallbladder Cancer, Bile Duct Cancer | Urinary Bladder Cancer, HNSCC |  | 
348 (ALAKPPVVSV; listed as Homo sapiens) [compound 348] | SCLC, HCC, Melanoma, Esophageal Cancer | NSCLC, Urinary Bladder Cancer, NHL, HNSCC |  | 
203 (ALLSSQLAL; listed as Homo sapiens) [compound 203] |  | NHL, AML, NSCLC |  | 
269 (TLTDEQFLV; listed as Homo sapiens) [compound 269] | NHL, AML | BRCA |  | 
361 (ILQEFESKL; listed as Homo sapiens) [compound 361] |  | AML, NHL |  | 
67 (GLDDVTVEV; listed as Homo sapiens) [compound 67] | HCC, NHL, Melanoma, Esophageal Cancer, OC, Gallbladder Cancer, Bile Duct Cancer | AML |  | 
370 (SIFASPESV; listed as Homo sapiens) [compound 370] | Melanoma, Esophageal Cancer, Urinary bladder cancer | Uterine Cancer, Gallbladder Cancer, Bile Duct Cancer, AML, HNSCC |  | 
223 (ALWVSQPPEI; listed as Homo sapiens) [compound 223] | NHL |  |  | 
293 (ALDIMIPMV; listed as Homo sapiens) [compound 293] |  | AML, CRC, Brain Cancer, Gallbladder Cancer, CCC, HNSCC, Melanoma, NHL, NSCLC, OC, Brain Cancer, RCC, SCLC, Urinary Bladder Cancer, Uterine Cancer |  | 
250 (LLVQEPDGLMV; listed as Homo sapiens) [compound 250] | SCLC, HCC, Melanoma, Urinary bladder cancer |  |  | 
376 (VLYNQRVEEI; listed as Homo sapiens) [compound 376] | Urinary bladder cancer |  |  | 
SEQ ID NO.: 2 (ALHRPDVYL; listed as Homo sapiens) |  |  | 2/21 | 
324 (SLYSALQQA; listed as Homo sapiens) [compound 324] | NHL | SCLC, Uterine Cancer, AML |  | 
239 (ILAGEMLSV; listed as Homo sapiens) [compound 239] | NHL, AML, Melanoma, Gallbladder Cancer, Bile Duct Cancer | SCLC, HCC |  | 
152 (SLIRILQTI; listed as Homo sapiens) [compound 152] | HCC | SCLC |  | 

Substance | Other relevant organs/diseases | Additional Entities | additionally detected on non-Hodgkin lymphoma samples (positive/measured samples) | additionally detected on lung cancers (positive/measured samples)
230 (FLQDSKVIFV; listed as Homo sapiens) [compound 230] | NHL |  |  | 
381 (YLLEENKIKL; listed as Homo sapiens) [compound 381] | NHL |  |  | 
247 (KLKDRLPSI; listed as Homo sapiens) [compound 247] | NHL | HCC |  | 
373 (TLLADQGEIRV; listed as Homo sapiens) [compound 373] | NHL, Melanoma |  |  | 
306 (VVAEELENV; listed as Homo sapiens) [compound 306] | NHL, Melanoma, OC | RCC |  | 
321 (RLLEFELAQL; listed as Homo sapiens) [compound 321] | SCLC, CRC, NHL, OC | Brain Cancer, PrC, Uterine Cancer, AML, HNSCC |  | 
SEQ ID NO.: 3 (VIAELPPKV; listed as Homo sapiens) |  |  | 5/21 | 1/90
279 (YMAPEVVEA; listed as Homo sapiens) [compound 279] |  | HNSCC, NHL, NSCLC, SCLC, Uterine Cancer |  | 
272 (VLDELPPLI; listed as Homo sapiens) [compound 272] | SCLC, NHL | BRCA, Uterine Cancer, HNSCC |  | 
207 (IIADLDTTIMFA; listed as Homo sapiens) [compound 207] | SCLC, NHL, Melanoma, OC |  |  | 
335 (YLYQEQYFI; listed as Homo sapiens) [compound 335] | SCLC, NHL, AML, Urinary bladder cancer | CRC, Brain Cancer, Gallbladder Cancer, CCC, NSCLC, UterineCancer |  | 
55 (FMEPTLLML; listed as Homo sapiens) [compound 55] | NHL, Urinary bladder cancer | HNSCC |  | 
111 (KLWNVAAPLYL; listed as Homo sapiens) [compound 111] |  | Melanoma |  | 
252 (NLLDPGSSYLL; listed as Homo sapiens) [compound 252] | Esophageal Cancer |  |  | 
326 (VLAFLVHEL; listed as Homo sapiens) [compound 326] |  | Esophageal Cancer, NSCLC, RCC |  | 
84 (GVMDVNTAL; listed as Homo sapiens) [compound 84] |  | AML, HCC, HNSCC, NHL, NSCLC, GC, RCC |  | 
253 (NLWSVDGEVTV; listed as Homo sapiens) [compound 253] | NHL |  |  | 
296 (FIAPTGHSL; listed as Homo sapiens) [compound 296] | SCLC, NHL, AML, BRCA |  |  | 
38 (FIMEGGAMV; listed as Homo sapiens) [compound 38] | NHL | HNSCC |  | 
87 (HQIEAVDGEEL; listed as Homo sapiens) [compound 87] | GC, NHL, Esophageal Cancer |  |  | 
216 (WLAGDVPAA; listed as Homo sapiens) [compound 216] | SCLC, NHL | AML, HNSCC |  | 
